{
  "source": "patent US10117940B2",
  "about": "“DPI formulation containing sulfoalkyl ether cyclodextrin” (CyDex Pharmaceuticals, Inc., priority 2004, dated 2018)",
  "assay": "Electrostatic charge measurement with Faraday cage apparatus",
  "assay_type": "physicochemical",
  "protocol": "Determination of the electrostatic charge of the SAE-CD-containing carrier and the active agent-containing composition.\nElectrostatic charge measurements were performed using a Faraday Cage apparatus that determines the potential difference changes as a function of time during powder flow onto a conducting surface. Samples were weighed and transferred from original containers to wax coated weighing papers. These were mounted to a vibrating spatula (set at maximum vibration level). The angle of the spatula was set at a constant angle (30 degrees). Powder was dispensed to the Faraday cage that was connected to a electrometer. Data collection was performed using Windaq interface and a PC computer sampling at 240 Hz. The area under the electrostatic dissipation curve was determined (Voltage×time) and charge (nC/g) was calculated from the known resistance of the setup.",
  "note": "For at least one compound, name, drawing or mass did not settle the structure.",
  "data": [
    {"molecule": "O=C1OC2(c3ccc(O)cc3Oc3cc(O)ccc32)c2ccccc21", "note": "[Na fluorescein]", "values": [
      {"measurement": "Polarity and magnitude of electrostatic charge (in words)", "value": "moderate negative charge"},
      {"measurement": "Electrostatic charge of active agent, Approx. Magnitude", "setting": "exemplary active agent of the charge range", "value": "<−3", "unit": "nC/g"}
    ]}
  ]
}
